Data as given in PubChem BioAssay AID602196 (INSERM, 2012).
This is one part, drawn at random, of about 23,000 deposited reagents. 455 of all reagents (2%) count as active. 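Active includes both protection and sensitisation; some change values fall well beyond the stated -50 to +50 range.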 Entries without a mark were called inactive. Further read-outs or replicates are left out here. The record does not give: the amount of reagent.

- Assay: 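Knock-downs that protect lung cancer cells from cisplatin or sensitise them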
- System: human A549 lung cancer cells
- Reagents: siRNA pair against human genes
- Time to read-out: 48 h transfection before cisplatin; time from cisplatin to read-out not stated
- Treatment: cisplatin at a dose killing half of control-siRNA cells; exact dose and duration not given
- Detection: 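Shift in cisplatin death relative to control siRNA, from -50 (all cells die) to +50 (no cells die); siRNAs harmful on their own scored 0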
- Reading the numbers: two-siRNA summed score (-2 to +2): higher = both siRNAs protect from cisplatin killing; -2 means both sensitise; mean protection from cisplatin (shift in death) and protection from cisplatin (shift in death), siRNA C: higher = protection from cisplatin killing
- Call rule: 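siRNAs harmful alone (LDH or WST-1) get 0; others get +1 for less and -1 for more cisplatin killing; genes are active when the two siRNAs give the same sign, summing to ±2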
- Calls: active = both siRNAs shift cisplatin killing the same way; inactive = no consistent shift, or siRNA harmful alone

| Gene | two-siRNA summed score (-2 to +2) | mean protection from cisplatin (shift in death) (%) | protection from cisplatin (shift in death), siRNA C (%) |
| --- | --- | --- | --- |
| LOC401165 | 0 | 3.9 | 8.3 |
| PBX4 | 0 | -3.1 | 0.6 |
| GCSH | 1 | 3.3 | -5.8 |
| ZNF813 | -1 | -1.9 | -12.1 |
| THEM6 | 0 | 5.6 | -1.7 |
| LYRM1 | 0 | 4.8 | 1 |
| NYAP1 | -1 | -2.6 | -8.7 |
| ZDHHC20 | 0 | 10.3 | 12.6 |
| LOC388681 | 0 | -0.3 | -10.6 |
| APCDD1 | 0 | -0.4 | -7.1 |
| OR10Z1 | 0 | 3 | 3.2 |
| NAXD | 0 | -0.4 | 0 |
| MAN2A1 | 1 | 4.3 | -16.1 |
| IGFL1 | 1 | 17.7 | 17.3 |
| PEX2 | 0 | -5.1 | -9.4 |
| TUBGCP3 | 0 | -4.5 | -3.8 |
| IFI6 | 0 | -2.9 | 3.9 |
| MRPL12 | 1 | 7.3 | -6 |
| ERBB4 | 1 | -0.5 | 14.7 |
| CPT1A | 0 | 0.5 | -2 |
| EIF2B1 | 0 | -3.8 | -2.9 |
| OR4C12 | 0 | -1 | -6.1 |
| BEND5 | 0 | 4.1 | 3 |
| TRIM40 | 1 | 18.5 | 22 |
| SKIDA1 | 1 | 10.5 | 1.5 |
| PELO | 0 | 6 | 7 |
| PGBD1 | 1 | 12.5 | 28.1 |
| LOC400764 | 0 | -0.5 | -1.9 |
| PODXL2 | 0 | 1.9 | 2.6 |
| CMTM2 | 0 | -2 | -9.1 |
| CKM | -1 | -16.7 | -15.1 |
| LOC440786 | 1 | 21.1 | 21.9 |
| CD14 | 0 | -15.4 | 13.2 |
| LRRIQ3 | 0 | -3.1 | -8.8 |
| PPP3R1 | 0 | -0.5 | 8.8 |
| GOLGA8VP | 0 | 5.5 | 11.1 |
| ANAPC1 | 0 | 20.1 | 4.7 |
| RLIG1 | 0 | -8.7 | -4.6 |
| SRSF12 | 0 | 10.6 | 2.4 |
| NRF1 | -1 | -3.1 | 13 |
| RITA1 | -1 | -13.5 | -9.1 |
| RSPH3 | 1 | 2.1 | 11.3 |
| PRR5 | 0 | -0.9 | -2.9 |
| SOX6 | 1 | 1.5 | 8.9 |
| GRK7 | 1 | 11.9 | 9.8 |
| GRPEL2 | 0 | 6.9 | 5.5 |
| UGT3A2 | 0 | -2.9 | -5.5 |
| ACHE | -1 | -17.4 | 2.7 |
| MCTP2 | 0 | 9.1 | 7.8 |
| MORC3 | 0 | -4.5 | -8.6 |
| LOC442731 | 0 | 8.6 | 6.7 |
| SLC24A5 | 0 | 15.6 | 16.2 |
| BNIP1 | 0 | -2.6 | -2.7 |
| LOC401861 | 0 | 19.6 | 5 |
| SPINK2 | 0 | 13.2 | 13.8 |
| LOC284120 | 0 | 3 | 0.8 |
| TENM3-AS1 | 0 | 0.1 | 10.3 |

Single entries from above:
Entry of OR10Z1 under “two-siRNA summed score (-2 to +2)”: 0
Under “mean protection from cisplatin (shift in death) (%)”, TENM3-AS1 reads 0.1
LOC401861, protection from cisplatin (shift in death), siRNA C (%) = 5
Result for CMTM2 under “two-siRNA summed score (-2 to +2)”: 0
